Data as given in PubChem BioAssay AID1671195 (Yale University, 2021).
Test: 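Knockdowns that increase or decrease uptake of fluorescent LDL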 (primary screen). System: human Huh7 hepatoma cells. Reagents: siRNA pool against human genes, 18 nM. Duration: about 2 to 2.5 days of knockdown, then 8 h LDL uptake. Challenge: DiI-labelled LDL at 30 µg/ml for 8 h, in lipoprotein-deficient serum medium. Measured: 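Fluorescent LDL signal imaged in cells, scaled to the plate median, robust z-score for each replicate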. Reading the numbers: robust z-score: higher = more LDL uptake after knockdown. Active means: 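Active when two or more replicates show a robust z-score above 2 or below -2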.
This is a random part of about 22,000 deposited reagents. Of all reagents, about 1,510 (6.9%) got an active call. 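Active includes knockdowns raising or lowering LDL uptake; positive z-scores mean more uptake, negative mean less.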 Entries without a mark were called inactive.

{"gene symbol":"TOMM40 (translocase of outer mitochondrial membrane 40)","robust z-score, replicate 1":-1.01,"robust z-score, replicate 2":-0.459,"robust z-score, replicate 3":-2.01}
{"gene symbol":"OSER1 (oxidative stress responsive serine rich 1)","robust z-score, replicate 1":0.422,"robust z-score, replicate 2":-0.519,"robust z-score, replicate 3":-0.0378}
{"gene symbol":"WWP2 (WW domain containing E3 ubiquitin protein ligase 2)","robust z-score, replicate 1":-0.552,"robust z-score, replicate 2":-0.338,"robust z-score, replicate 3":-0.362}
{"gene symbol":"LOC400590 (retired record)","robust z-score, replicate 1":-0.349,"robust z-score, replicate 2":0.171,"robust z-score, replicate 3":-0.0386}
{"gene symbol":"GRWD1 (glutamate rich WD repeat containing 1)","robust z-score, replicate 1":-0.834,"robust z-score, replicate 2":-1.16,"robust z-score, replicate 3":-1.3}

Ordered by “robust z-score, replicate 2” (highest first): 2 of the entries above.
{"gene symbol":"WWP2 (WW domain containing E3 ubiquitin protein ligase 2)","robust z-score, replicate 1":-0.552,"robust z-score, replicate 2":-0.338,"robust z-score, replicate 3":-0.362}
{"gene symbol":"OSER1 (oxidative stress responsive serine rich 1)","robust z-score, replicate 1":0.422,"robust z-score, replicate 2":-0.519,"robust z-score, replicate 3":-0.0378}

Additional reagents follow.
{"gene symbol":"SNRPD2 (small nuclear ribonucleoprotein D2 polypeptide)","robust z-score, replicate 1":-1.11,"robust z-score, replicate 2":-0.875,"robust z-score, replicate 3":-1.64}
{"gene symbol":"GRSF1 (G-rich RNA sequence binding factor 1)","robust z-score, replicate 1":0.462,"robust z-score, replicate 2":0.994,"robust z-score, replicate 3":0.72}
{"gene symbol":"POLDIP2 (DNA polymerase delta interacting protein 2)","robust z-score, replicate 1":-0.313,"robust z-score, replicate 2":-0.622,"robust z-score, replicate 3":1.03}
{"gene symbol":"LOC441070 (retired record)","robust z-score, replicate 1":-0.541,"robust z-score, replicate 2":-0.557,"robust z-score, replicate 3":-0.671}
{"gene symbol":"MBLAC1 (metallo-beta-lactamase domain containing 1)","robust z-score, replicate 1":-1.09,"robust z-score, replicate 2":-0.631,"robust z-score, replicate 3":-1.23}
{"gene symbol":"ZGPAT (zinc finger CCCH-type and G-patch domain containing)","robust z-score, replicate 1":-0.471,"robust z-score, replicate 2":-0.0935,"robust z-score, replicate 3":-0.0103}
{"gene symbol":"WNT7A (Wnt family member 7A)","robust z-score, replicate 1":"0.938 (active)","robust z-score, replicate 2":2.9,"robust z-score, replicate 3":2.44}
{"gene symbol":"FMC1 (formation of mitochondrial complex V assembly factor 1)","robust z-score, replicate 1":0.273,"robust z-score, replicate 2":0.14,"robust z-score, replicate 3":0.688}
{"gene symbol":"MT1H (metallothionein 1H)","robust z-score, replicate 1":0.966,"robust z-score, replicate 2":-0.89,"robust z-score, replicate 3":0.271}
{"gene symbol":"SLC35F2","robust z-score, replicate 1":"3.07 (active)","robust z-score, replicate 2":4.04,"robust z-score, replicate 3":2.26}
{"gene symbol":"LY86-AS1 (LY86 antisense RNA 1)","robust z-score, replicate 1":0.316,"robust z-score, replicate 2":0.424,"robust z-score, replicate 3":0.737}
